Assay results reported in PubChem BioAssay AID504847 (National Center for Advancing Translational Sciences (NCATS), 2011).
Screen size: about 400,000 compounds; about 3,700 (0.93%) were called active. This list was built around the results that the source calls inconclusive (neither active nor inactive); the mix of calls is not that of the screen. The call rests on the fitted dose curve; in most records, active means well fitted inhibition curve with a large enough effect; inconclusive means small, poorly fitted or top-dose-only effect, or another doubt; inactive means no such curve, though single readings can be large or run the other way. Potencies of inconclusive entries are doubtful fits and often do not repeat.

Amino acid sequences for entries named in this document (tags omitted). A change or cut given only in a name is not applied to a line headed by its entry.
UniProt P11473: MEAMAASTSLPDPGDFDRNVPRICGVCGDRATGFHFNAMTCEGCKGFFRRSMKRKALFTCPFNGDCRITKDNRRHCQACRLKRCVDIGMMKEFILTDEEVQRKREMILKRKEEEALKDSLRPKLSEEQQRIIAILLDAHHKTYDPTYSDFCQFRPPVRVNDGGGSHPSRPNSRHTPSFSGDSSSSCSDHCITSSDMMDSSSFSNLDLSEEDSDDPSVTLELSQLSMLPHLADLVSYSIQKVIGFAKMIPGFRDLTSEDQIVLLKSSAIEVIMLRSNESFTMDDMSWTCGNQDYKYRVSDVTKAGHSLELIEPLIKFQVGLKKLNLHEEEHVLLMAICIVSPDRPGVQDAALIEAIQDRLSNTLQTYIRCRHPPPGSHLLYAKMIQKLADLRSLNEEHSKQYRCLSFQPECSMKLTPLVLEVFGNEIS

molecular target: Vitamin D3 receptor (Homo sapiens) (UniProt P11473); assay: Inhibitors of the vitamin D receptor (VDR): qHTS; settings: VDR-SRC2-3 peptide fluorescence polarization, 2 h; max response, negative = inhibition: stronger effect = lower value
In short: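 VDR–SRC2-3 interaction, FP format. Cmpds 23 nl via pintool, brief spin, 2 h ambient incubation.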
On the % scale 0 is the no-effect control and ±100 the full control effect; potency means the concentration at half of the fitted maximal effect.

**Q.** For `CSc1sccc1/C=C(/C#N)C(=O)c1ccco1`, which Potency is on record?
**A.** Its Potency is inconclusive: 79.4 µM [inhibitor, partial curve, poor fit].

**Q.** `Cc1cc(C)nc(NS(=O)(=O)c2ccc(N=Cc3c(C)[nH]n(-c4ccccc4)c3=O)cc2)n1` was tested. Which Potency did it give?
**A.** The Potency was inconclusive: 70.8 µM [inhibitor, partial curve].

**Q.** How did the Potency turn out when `COc1ccc(/C=C2\CC/C(=C\c3ccc(OC)c(OC)c3)C2=O)cc1OC` was run?
**A.** Its Potency is inconclusive: 56.2 µM [inhibitor, partial curve, poor fit].

**Q.** How did the Potency turn out when `CC(C)c1nnc(NC(=O)CCS(=O)(=O)c2nc(-c3cccs3)cc(C(F)(F)F)n2)s1` was run?
**A.** Its Potency is active: 22.4 µM.

**Q.** With `CCOc1ccc(NC(=O)CN2CCN(C3CCCCC3)C(=O)C2=O)cc1` as the compound, how does the max response, negative = inhibition read?
**A.** The max response, negative = inhibition was inactive: 12.8%.

**Q.** For `Cc1cccc(CNc2cc(-c3ccccc3C)ncn2)c1`, which Potency is on record?
**A.** Its Potency is inconclusive: 89.1 µM [inhibitor, single point].

**Q.** For `CCOC(=O)C1CCCN(S(=O)(=O)CCNC(=O)c2cccc(OC)c2)C1` (centres undefined), which Potency is on record?
**A.** Its Potency is inconclusive: 89.1 µM [inhibitor, single point].

**Q.** `Cc1ccc([C@H]2C(C(=O)O)=CC[C@@H](c3ccc(C)cc3)N2S(=O)(=O)c2ccccc2C)cc1` was tested. Which max response, negative = inhibition did it give?
**A.** Its max response, negative = inhibition is inactive: -11.4%.

**Q.** For `COc1ccc2[nH]c3c(c2c1)CCN1C(=O)C(CC(=O)NCc2ccco2)C[C@H](C(=O)N(C(C)C)C(C)C)[C@@]31C` (some centres undefined), which Potency is on record?
**A.** The Potency was inconclusive: 63.1 µM [inhibitor, partial curve, poor fit].

**Q.** Which Potency does the source give for `CCOCCCNC(=O)c1ccc2c(c1)ncn2-c1ccc(CC)cc1` here?
**A.** Its Potency is inconclusive: 100 µM [inhibitor, single point].

**Q.** `O=C(c1cccnc1Cl)N1CCOCC1` was tested. Which Potency did it give?
**A.** Its Potency is inconclusive: 56.2 µM [inhibitor, partial curve, poor fit].

**Q.** For `CSc1ccccc1NC(=O)CN(C)CC(=O)NCc1ccccc1`, which max response, negative = inhibition is on record?
**A.** Its max response, negative = inhibition is inactive: 0.523%.

**Q.** For `Cc1noc(-c2ccc(CSCCC(=O)O)cc2)c1NC(=O)OC(C)c1ccccc1Cl` (centres undefined), which Potency is on record?
**A.** The Potency was inconclusive: 44.7 µM [inhibitor, full curve].

**Q.** With `Cc1cc(CC(=O)O)c(C)n1-c1ccc(Cl)cc1` as the compound, how does the Potency read?
**A.** The Potency was inconclusive: 44.7 µM [inhibitor, partial curve, poor fit].

**Q.** `CCOC(=O)Cn1nc(C)n(-c2ccc(Br)cc2)c1=O` was tested. Which Potency did it give?
**A.** Its Potency is inconclusive: 100 µM [inhibitor, single point].

**Q.** For `S=C(NCc1ccc(Cl)cc1Cl)NC1CCCCC1`, which max response, negative = inhibition is on record?
**A.** Its max response, negative = inhibition is inactive: -10.1%.

**Q.** Which max response, negative = inhibition does the source give for `CC(=O)/C=C\C1[C@]2(C)CCCC(C)(C)C2CC[C@@]1(C)O` (some centres undefined) here?
**A.** Its max response, negative = inhibition is inactive: 1.45%.

**Q.** For `CCN(CC)c1ccc(/C=N/NC(=O)CNC(=O)c2ccc3c(c2)OCCO3)cc1`, which max response, negative = inhibition is on record?
**A.** Its max response, negative = inhibition is inactive: -17%.

**Q.** Which Potency does the source give for `O=C(c1ccco1)N1CCN(CCOc2ccc(F)cc2)CC1` here?
**A.** Its Potency is inconclusive: 89.1 µM [inhibitor, partial curve, poor fit].

**Q.** How did the Potency turn out when `CC(C)C(=O)Nc1ccc(NC(=O)c2cccc3c(Br)cccc23)cc1` was run?
**A.** The Potency was inconclusive: 28.2 µM [inhibitor, single point].

**Q.** For `CC(C)(C)c1ccc(-c2nnc3sc(-c4ccccn4)nn23)cc1`, which Potency is on record?
**A.** The Potency was inconclusive: 89.1 µM [inhibitor, single point].

**Q.** Which Potency does the source give for `O=C(O)c1ccc(N2C(=O)c3[nH]nc(-c4ccccc4)c3C2c2cccc(F)c2)cc1` (centres undefined) here?
**A.** The Potency was inconclusive: 100 µM [inhibitor, single point].

**Q.** With `N#CC(C#N)=Cc1cc2ccccc2nc1N1CCOCC1` as the compound, how does the Potency read?
**A.** The Potency was inconclusive: 79.4 µM [inhibitor, partial curve].

**Q.** Which max response, negative = inhibition does the source give for `O=C(COc1ccccc1C(=O)N/N=C\c1ccc(O)c(O)c1)N/N=C/c1ccc(O)c(O)c1` here?
**A.** The max response, negative = inhibition was inactive: 8.04%.

**Q.** `COc1cccc(/C=N/NC(=O)CSc2ccccc2C)c1OC` was tested. Which Potency did it give?
**A.** Its Potency is inconclusive: 11.2 µM [inhibitor, partial curve, poor fit].

**Q.** For `CCOc1ccccc1C1C(C#N)=C(N)SC(N)=C1C#N`, which Potency is on record?
**A.** Its Potency is inconclusive: 89.1 µM [inhibitor, single point].

**Q.** With `COc1ccc(CCC(=O)OCC(=O)c2c(N)n(CC(C)C)c(=O)n(C)c2=O)cc1` as the compound, how does the max response, negative = inhibition read?
**A.** Its max response, negative = inhibition is inactive: 4.24%.

**Q.** `CCOc1ccc(CN(C(=O)/C=C/c2ccco2)C2CCS(=O)(=O)C2)cc1` (centres undefined) was tested. Which Potency did it give?
**A.** Its Potency is inconclusive: 3.98 µM [inhibitor, partial curve, poor fit].

**Q.** For `O=C(O)CCN1C(=O)c2ccc(NC(=O)CSc3ccccc3)cc2C1=O`, which Potency is on record?
**A.** The Potency was inconclusive: 79.4 µM [inhibitor, partial curve, poor fit].

**Q.** With `Cc1ccc(-c2ccnc3nc(-n4cccc4)nn23)o1` as the compound, how does the Potency read?
**A.** Its Potency is inconclusive: 31.6 µM [inhibitor, single point].

**Q.** For `COc1ccc(NC(=O)c2[nH]ncc2[N+](=O)[O-])cc1`, which Potency is on record?
**A.** Its Potency is inconclusive: 89.1 µM [inhibitor, partial curve, poor fit].

**Q.** For `CC(=O)c1ccc2noc(-c3ccc(C)cc3)c2c1`, which Potency is on record?
**A.** Its Potency is inconclusive: 56.2 µM [inhibitor, partial curve, poor fit].

**Q.** Which Potency does the source give for `COC(=O)c1c(NC(=O)CSc2nc3ccccc3c(=O)n2-c2ccccc2)sc(C)c1C` here?
**A.** Its Potency is inconclusive: 89.1 µM [inhibitor, single point].

**Q.** For `COC(=O)c1nnn(CC(=O)NC(=O)Nc2ccccc2F)c1C(=O)OC`, which Potency is on record?
**A.** Its Potency is inconclusive: 89.1 µM [inhibitor, single point].

**Q.** For `CCOC(=O)C1=C(Cc2ccc(Cl)cc2)C(=O)c2ccccc2C1=O`, which Potency is on record?
**A.** The Potency was active: 6.31 µM.

**Q.** Which Potency does the source give for `CC(C)CCNC(=O)C(c1ccncc1)N(C(=O)Cn1nnc(-c2ccc(F)cc2)n1)c1ccccc1F` (centres undefined) here?
**A.** Its Potency is inconclusive: 28.2 µM [inhibitor, partial curve, poor fit].

**Q.** For `COc1ccc(OC)c(C2C(C(=O)c3ccco3)=C(O)C(=O)N2Cc2cccnc2)c1` (centres undefined), which max response, negative = inhibition is on record?
**A.** Its max response, negative = inhibition is inactive: -5.02%.

**Q.** With `N#CC1=C2SCN(Cc3ccco3)CN2C(=O)CC1c1c(F)cccc1Cl` (centres undefined) as the compound, how does the Potency read?
**A.** The Potency was inconclusive: 22.4 µM [inhibitor, full curve, poor fit].

**Q.** For `O=C(O)Cc1c(C(=O)O)[nH]c2ccc(C(=O)O)cc12`, which Potency is on record?
**A.** The Potency was inconclusive: 8.91 µM [inhibitor, partial curve].

**Q.** For `Cc1ccccc1-c1ccc2ncnc(N(C)Cc3ccco3)c2c1`, which Potency is on record?
**A.** The Potency was active: 31.6 µM.

**Q.** For `CC(=O)OC(C(=O)NC1CCCCC1)c1ccc(Cl)c(Cl)c1` (centres undefined), which Potency is on record?
**A.** Its Potency is inconclusive: 89.1 µM [inhibitor, partial curve, poor fit].

**Q.** `O=C(CSc1ncnc2ccccc12)c1ccco1` was tested. Which Potency did it give?
**A.** The Potency was inconclusive: 89.1 µM [inhibitor, single point].

**Q.** `O=C(CSc1nc2ccccc2[nH]1)c1ccc2c(c1)OCO2` was tested. Which Potency did it give?
**A.** The Potency was inconclusive: 79.4 µM [inhibitor, partial curve, poor fit].

**Q.** How did the Potency turn out when `COc1ccc(N2CC(C(=O)Nc3nnc(SCC(=O)NC4CCCC4)s3)CC2=O)cc1` (centres undefined) was run?
**A.** Its Potency is inconclusive: 89.1 µM [inhibitor, single point].

**Q.** With `COC(=O)Cc1ccc(NC(=S)N2CCN(C)CC2)cc1` as the compound, how does the Potency read?
**A.** The Potency was inconclusive: 20 µM [inhibitor, partial curve, poor fit].

**Q.** How did the Potency turn out when `Cn1cccc1C(=O)N1CCC2(CCN(Cc3ccc(C#N)cc3)CC2)CC1` was run?
**A.** The Potency was inconclusive: 89.1 µM [inhibitor, partial curve, poor fit].

**Q.** `Cc1cnc(CNc2cc(-c3ccccc3C)ncn2)cn1` was tested. Which Potency did it give?
**A.** The Potency was inconclusive: 56.2 µM [inhibitor, partial curve, poor fit].

**Q.** Which Potency does the source give for `CCN(CC)C(=O)Oc1cc(=O)n2c3c(cccc13)CCC2` here?
**A.** The Potency was inconclusive: 100 µM [inhibitor, single point].

**Q.** How did the Potency turn out when `COC(=O)C(=C/C(C)=C/c1cccnc1)C(=O)OC` was run?
**A.** Its Potency is inconclusive: 39.8 µM [inhibitor, single point].

**Q.** For `Nc1cc(OC(=O)c2cccs2)nn1S(=O)(=O)c1ccc(F)cc1`, which max response, negative = inhibition is on record?
**A.** Its max response, negative = inhibition is inactive: -20.5%.

**Q.** With `O=C(CNc1cccc(S(=O)(=O)N2CCCCC2)c1)Nc1cccc(F)c1` as the compound, how does the Potency read?
**A.** The Potency was inconclusive: 79.4 µM [inhibitor, single point].

**Q.** For `CCS(=O)(=O)c1ncc(Cl)c(C(=O)N(Cc2ccccc2)Cc2ccco2)n1`, which Potency is on record?
**A.** Its Potency is inconclusive: 31.6 µM [inhibitor, partial curve, poor fit].

**Q.** For `CCn1c(SCC(=O)Nc2ccc(C(C)=O)cc2)nnc1C1CC1`, which max response, negative = inhibition is on record?
**A.** The max response, negative = inhibition was inactive: -2.02%.

**Q.** For `CCOC(=O)c1ccc(N=C2C(=S)N(c3ccc(C(=O)OCC)cc3)C(=N)N2/N=C/c2ccccc2)cc1`, which Potency is on record?
**A.** The Potency was inconclusive: 2.82 µM [inhibitor, full curve, poor fit].

**Q.** With `Cc1ccccc1C(=O)NC(=S)N(Cc1ccccc1)c1ccccn1` as the compound, how does the Potency read?
**A.** The Potency was inconclusive: 100 µM [inhibitor, single point].

**Q.** How did the Potency turn out when `CN1CCN(c2ccc([N+](=O)[O-])cc2NC(=O)c2cccs2)CC1` was run?
**A.** Its Potency is inconclusive: 100 µM [inhibitor, single point].

**Q.** How did the Potency turn out when `C#CCOc1c(/C=C\c2nc(O)c([N+](=O)[O-])c(=O)[nH]2)cc(Br)cc1OC` was run?
**A.** The Potency was active: 22.4 µM.

**Q.** For `CC1CCN(C(=O)N2c3ccccc3Sc3ccccc32)CC1`, which max response, negative = inhibition is on record?
**A.** Its max response, negative = inhibition is inactive: -2.59%.

**Q.** With `CCN(CC)c1ccc2nc3ccc(N)cc3[n+](-c3ccccc3)c2c1` as the compound, how does the Potency read?
**A.** The Potency was inconclusive: 89.1 µM [inhibitor, single point].

**Q.** `COC(=O)c1sccc1N/N=C/c1cccc(Oc2ccccc2)c1` was tested. Which max response, negative = inhibition did it give?
**A.** The max response, negative = inhibition was inactive: 3.4%.

**Q.** `CCOC(=O)[C@H]1NN=C(C(=O)OC)[C@@H]1c1ccccc1` was tested. Which Potency did it give?
**A.** Its Potency is inconclusive: 50.1 µM [inhibitor, full curve, poor fit].

**Q.** `O=C(c1ccccn1)N1CCCC(N2CCN(c3cccc(C(F)(F)F)c3)CC2)C1` (centres undefined) was tested. Which Potency did it give?
**A.** The Potency was inconclusive: 100 µM [inhibitor, single point].

**Q.** `CC(C)CN1CC[C@@]2(CCCN(C(=O)c3ccco3)C2)C1` was tested. Which Potency did it give?
**A.** Its Potency is inconclusive: 89.1 µM [inhibitor, single point].

**Q.** For `Cc1ccc(N(NC(=O)C(O)(c2ccccc2)c2ccccc2)C(=O)CCl)cc1`, which Potency is on record?
**A.** The Potency was inconclusive: 100 µM [inhibitor, partial curve, poor fit].
